This passage reports binding results from PMC5630306.

Sequences of proteins named here, by UniProt entry; tags and fusion partners are left off. A change or cut given only in a name is not applied to a line headed by its entry.
UniProt Q62120: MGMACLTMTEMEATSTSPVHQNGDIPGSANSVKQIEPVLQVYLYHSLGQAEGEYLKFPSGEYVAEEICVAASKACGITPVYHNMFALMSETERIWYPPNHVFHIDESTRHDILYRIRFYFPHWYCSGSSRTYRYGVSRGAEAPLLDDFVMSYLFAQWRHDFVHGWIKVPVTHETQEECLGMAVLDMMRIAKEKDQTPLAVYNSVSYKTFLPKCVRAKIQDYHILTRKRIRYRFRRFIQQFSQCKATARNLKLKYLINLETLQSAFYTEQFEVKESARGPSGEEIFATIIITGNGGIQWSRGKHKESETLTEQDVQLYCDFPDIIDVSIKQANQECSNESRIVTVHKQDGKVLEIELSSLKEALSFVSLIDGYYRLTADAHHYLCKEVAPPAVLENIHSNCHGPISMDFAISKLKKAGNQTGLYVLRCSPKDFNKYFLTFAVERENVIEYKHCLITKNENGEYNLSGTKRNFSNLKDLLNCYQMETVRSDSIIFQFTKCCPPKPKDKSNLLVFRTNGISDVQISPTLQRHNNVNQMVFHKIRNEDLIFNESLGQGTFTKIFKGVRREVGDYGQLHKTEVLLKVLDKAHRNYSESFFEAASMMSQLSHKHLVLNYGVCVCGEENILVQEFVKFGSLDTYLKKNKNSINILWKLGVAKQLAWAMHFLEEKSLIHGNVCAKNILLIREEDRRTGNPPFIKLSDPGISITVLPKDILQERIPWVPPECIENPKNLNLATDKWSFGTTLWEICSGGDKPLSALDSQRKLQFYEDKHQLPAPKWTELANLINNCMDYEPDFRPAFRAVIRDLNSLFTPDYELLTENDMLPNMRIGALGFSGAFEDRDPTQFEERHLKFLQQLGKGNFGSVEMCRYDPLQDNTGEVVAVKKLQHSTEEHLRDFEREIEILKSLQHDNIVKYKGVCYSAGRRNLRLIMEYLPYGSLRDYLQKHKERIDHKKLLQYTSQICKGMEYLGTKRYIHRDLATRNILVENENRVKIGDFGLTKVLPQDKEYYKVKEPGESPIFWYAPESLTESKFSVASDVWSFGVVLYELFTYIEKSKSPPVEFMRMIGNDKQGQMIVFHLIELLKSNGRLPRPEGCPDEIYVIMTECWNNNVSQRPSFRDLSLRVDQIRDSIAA
UniProt P25911: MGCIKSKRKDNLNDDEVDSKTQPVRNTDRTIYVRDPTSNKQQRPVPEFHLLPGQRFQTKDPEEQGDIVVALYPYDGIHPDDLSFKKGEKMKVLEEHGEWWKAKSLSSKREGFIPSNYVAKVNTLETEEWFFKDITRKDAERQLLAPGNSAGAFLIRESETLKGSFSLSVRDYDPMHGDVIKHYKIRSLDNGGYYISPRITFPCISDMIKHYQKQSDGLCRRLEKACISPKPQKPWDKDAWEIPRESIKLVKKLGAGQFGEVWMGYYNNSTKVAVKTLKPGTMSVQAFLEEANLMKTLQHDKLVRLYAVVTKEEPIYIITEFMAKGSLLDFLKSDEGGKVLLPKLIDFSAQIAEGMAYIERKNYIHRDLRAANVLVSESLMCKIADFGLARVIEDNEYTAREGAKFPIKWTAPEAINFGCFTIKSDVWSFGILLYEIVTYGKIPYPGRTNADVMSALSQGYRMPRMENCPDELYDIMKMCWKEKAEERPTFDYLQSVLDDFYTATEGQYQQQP
UniProt Q6UN15: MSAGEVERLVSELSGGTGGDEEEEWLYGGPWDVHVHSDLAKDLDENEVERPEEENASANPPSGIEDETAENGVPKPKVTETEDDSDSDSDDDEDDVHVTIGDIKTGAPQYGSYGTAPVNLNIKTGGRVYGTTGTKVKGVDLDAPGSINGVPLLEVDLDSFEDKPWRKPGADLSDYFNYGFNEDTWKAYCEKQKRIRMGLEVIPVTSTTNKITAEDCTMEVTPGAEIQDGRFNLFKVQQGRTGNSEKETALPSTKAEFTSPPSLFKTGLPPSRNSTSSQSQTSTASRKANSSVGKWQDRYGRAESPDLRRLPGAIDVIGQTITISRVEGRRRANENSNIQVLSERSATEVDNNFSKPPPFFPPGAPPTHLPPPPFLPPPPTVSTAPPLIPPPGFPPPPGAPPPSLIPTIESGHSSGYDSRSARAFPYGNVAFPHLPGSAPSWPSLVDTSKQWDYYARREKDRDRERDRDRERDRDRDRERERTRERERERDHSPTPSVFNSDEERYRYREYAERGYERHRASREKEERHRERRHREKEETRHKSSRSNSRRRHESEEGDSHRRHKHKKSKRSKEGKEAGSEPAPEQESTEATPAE
UniProt P07948: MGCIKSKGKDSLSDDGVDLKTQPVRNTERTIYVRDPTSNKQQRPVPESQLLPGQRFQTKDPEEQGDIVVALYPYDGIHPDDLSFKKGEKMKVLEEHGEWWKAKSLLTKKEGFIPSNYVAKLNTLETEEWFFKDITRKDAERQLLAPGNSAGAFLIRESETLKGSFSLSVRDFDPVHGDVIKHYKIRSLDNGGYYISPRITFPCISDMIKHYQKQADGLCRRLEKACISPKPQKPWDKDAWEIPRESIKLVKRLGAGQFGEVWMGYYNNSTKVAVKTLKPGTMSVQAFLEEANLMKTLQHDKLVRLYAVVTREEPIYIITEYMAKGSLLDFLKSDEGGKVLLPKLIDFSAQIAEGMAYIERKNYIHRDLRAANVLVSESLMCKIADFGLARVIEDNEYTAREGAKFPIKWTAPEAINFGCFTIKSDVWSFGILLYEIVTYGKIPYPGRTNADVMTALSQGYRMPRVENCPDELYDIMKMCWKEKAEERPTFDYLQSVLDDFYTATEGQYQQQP

For assay [1], the target named is Janus kinase 2 (JAK2) (mouse (endogenous in 32D)) (UniProt Q62120). As to the kind of experiment: co-IP; detergent lysates of 32D cells (in IL-3) and F/P(+) 32D cells precipitated with anti-F/P (anti-PDGFRA), anti-JAK2 or anti-Lyn and protein A-agarose; Western blot with the same antibodies. In general terms: A western blot detects proteins with antibodies after separation by electrophoresis.

Assay [2] addresses Lyn (mouse (endogenous in 32D)) (UniProt P25911). The description is as above.
The target in assay [3] is FIP1L1-PDGFRA fusion protein (UniProt Q6UN15). In words: SEC; detergent lysate of F/P(+) 32D cells on Superose 6 prep grade; 30 mM HEPES pH 7.4, 150 mM NaCl, 10% glycerol, 0.5% NP-40; fractions blotted; network size estimated between 2 and 6 million.
For assay [4] the target is unchanged. In words: co-IP; detergent lysates of 32D cells (in IL-3) and F/P(+) 32D cells precipitated with anti-F/P (anti-PDGFRA), anti-JAK2 or anti-Lyn and protein A-agarose; Western blot with the same antibodies.
Assay [5] has as its target Lyn (human (endogenous in EOL-1)) (UniProt P07948). In words: co-IP; EOL-1 cells starved overnight, left unstimulated or stimulated with 5 ng/mL IL-5 (5 min or the indicated times) or 25 ng/mL IL-3 at 37°C; lysates precipitated with anti-Lyn; blot with anti-phosphotyrosine 4G10.

These are yes or no findings as the source states them, for the method shown. For part of these data: Binding seen in cells or lysates may run through a third protein. Some entries that bind do so weakly or less than the wild type.

For the molecule “FIP1L1-PDGFRA fusion protein (from UniProt Q6UN15 1-233; P16234 567-1089) (enzyme)”, the binding entry in assay [1] and in assay [2] was “binds” throughout.
“Janus kinase 2 (JAK2) (from UniProt Q62120 1-1132) (enzyme)”: the binding entry in assay [3], in assay [4] and in assay [2] was “binds” in each case.
Consider “Lyn (from UniProt P25911 1-512) (enzyme)”, for which the binding entry in assay [3], in assay [4] and in assay [1] was “binds” each time.

B1: IL-5 receptor α (IL-5RA), tyrosine-phosphorylated (receptor, UniProt Q01344 21-420)
chain: DLLPDEKISLLPPVNFTIKVTGLAQVLLQWKPNPDQEQRNVNLEYQVKINAPKEDDYETRITESKCVTILHKGFSASVRTILQNDHSLLASSWASAELHAPPGSPGTSIVNLTCTTNTTEDNYSRLRSYQVSLHCTWLVGTDAPEDTQYFLYYRYGSWTEECQEYSKDTLGRNIACWFPRTFILSKGRDWLAVLVNGSSKHSAIRPFDQLFALHAIDQINPPLNVTAEIEGTRLSIQWEKPVSAFPIHCFDYEVKIHNTRNGYLQIEKLMTNAFISIIDDLSKYDVQVRAAVSSMCREAGLWSEWSQPIYVGNDEHKPLREWFVIVIMATICFILLILSLICKICHLWIKLFPPIPAPKSNIKDLFVTTNYEKAGSSETEIEVICYIEKPGVETLEDSVF
modifications: phosphotyrosine (sites not stated; detected with 4G10)
Take B1: the binding entry in assay [5] is given as “binds”.
